For one substance, binding results are on record in paper PMC3495951.

By UniProt entry, the sequences of proteins in these tests, tags left out.
UniProt P08621: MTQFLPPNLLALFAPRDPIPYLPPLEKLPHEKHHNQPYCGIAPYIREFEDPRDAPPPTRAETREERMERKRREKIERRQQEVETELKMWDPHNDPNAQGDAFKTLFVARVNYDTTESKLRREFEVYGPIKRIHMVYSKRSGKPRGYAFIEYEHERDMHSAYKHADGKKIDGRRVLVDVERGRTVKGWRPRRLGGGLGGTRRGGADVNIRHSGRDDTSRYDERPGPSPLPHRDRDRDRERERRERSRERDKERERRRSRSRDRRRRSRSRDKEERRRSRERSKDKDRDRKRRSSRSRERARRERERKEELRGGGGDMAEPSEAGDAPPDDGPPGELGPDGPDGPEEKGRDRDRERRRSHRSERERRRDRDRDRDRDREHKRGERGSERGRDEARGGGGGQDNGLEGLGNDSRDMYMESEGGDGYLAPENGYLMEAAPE
UniProt Q07955: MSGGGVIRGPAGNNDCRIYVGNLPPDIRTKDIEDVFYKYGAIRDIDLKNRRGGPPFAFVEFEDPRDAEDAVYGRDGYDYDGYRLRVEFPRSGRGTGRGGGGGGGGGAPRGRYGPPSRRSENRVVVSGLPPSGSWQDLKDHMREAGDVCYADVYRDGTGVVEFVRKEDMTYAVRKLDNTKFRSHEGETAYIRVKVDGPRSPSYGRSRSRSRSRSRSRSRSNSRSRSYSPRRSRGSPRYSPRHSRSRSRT

The target in this assay is EGFP-U1 70K (UniProt P08621). In words: FRET or BRET; FLIM-FRET in living cells at 37°C; EGFP fusion as donor, mCherry fusion as acceptor; two-photon excitation at 890 nm; FRET efficiency = 1 - (tauDA/tauD), tauD from cells with mCherry-C1; control cells and TSA-treated cells. (In general: In BRET a luciferase serves as donor, and the signal depends on an acceptor being close.)

These are yes or no findings as the source states them, for the method shown. In cells and extracts the contact can be indirect. Some results given as binding are weak or reduced against the parent protein; the word gives no strength.

On to “mCherry-SRSF1 (from UniProt Q07955 1-248)”, for which the binding result is listed as “binds”.
